Paper doi:10.1101/2022.06.13.495977
No constants are given. Whether binding was seen depends on the method and setting. Binding seen in cells or lysates may run through a third protein. Here binding means that the protein was enriched with, or labelled near, the bait; the list need not be complete.

Sequences of proteins named here, by UniProt entry; tags and fusion partners are left off. A change or cut given only in a name is not applied to a line headed by its entry.
UniProt P03372: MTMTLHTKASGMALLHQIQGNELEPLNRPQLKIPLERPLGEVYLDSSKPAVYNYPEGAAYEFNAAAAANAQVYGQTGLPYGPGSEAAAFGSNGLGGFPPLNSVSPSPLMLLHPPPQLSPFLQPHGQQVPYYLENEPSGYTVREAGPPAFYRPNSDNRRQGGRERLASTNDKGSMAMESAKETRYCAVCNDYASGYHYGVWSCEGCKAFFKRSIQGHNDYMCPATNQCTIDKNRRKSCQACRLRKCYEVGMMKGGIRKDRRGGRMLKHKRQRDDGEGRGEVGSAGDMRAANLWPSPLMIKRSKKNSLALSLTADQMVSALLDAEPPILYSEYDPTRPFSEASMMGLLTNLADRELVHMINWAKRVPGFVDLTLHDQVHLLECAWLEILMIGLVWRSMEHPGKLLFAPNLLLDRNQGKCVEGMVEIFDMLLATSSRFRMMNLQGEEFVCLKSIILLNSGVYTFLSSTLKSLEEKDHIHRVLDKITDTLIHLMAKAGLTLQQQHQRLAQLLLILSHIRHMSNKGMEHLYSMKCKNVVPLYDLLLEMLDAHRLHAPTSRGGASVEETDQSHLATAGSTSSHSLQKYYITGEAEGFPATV
UniProt P50750: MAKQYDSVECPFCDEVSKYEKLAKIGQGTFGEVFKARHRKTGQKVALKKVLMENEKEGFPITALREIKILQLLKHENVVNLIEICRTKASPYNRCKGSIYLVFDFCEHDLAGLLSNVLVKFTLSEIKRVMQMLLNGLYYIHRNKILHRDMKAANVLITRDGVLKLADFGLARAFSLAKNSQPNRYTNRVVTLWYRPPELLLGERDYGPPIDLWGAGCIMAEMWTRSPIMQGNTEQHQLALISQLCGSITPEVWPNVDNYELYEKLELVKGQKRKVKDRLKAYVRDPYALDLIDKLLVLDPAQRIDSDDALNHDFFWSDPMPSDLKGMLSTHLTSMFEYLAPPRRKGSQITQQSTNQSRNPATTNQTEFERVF
UniProt Q09472: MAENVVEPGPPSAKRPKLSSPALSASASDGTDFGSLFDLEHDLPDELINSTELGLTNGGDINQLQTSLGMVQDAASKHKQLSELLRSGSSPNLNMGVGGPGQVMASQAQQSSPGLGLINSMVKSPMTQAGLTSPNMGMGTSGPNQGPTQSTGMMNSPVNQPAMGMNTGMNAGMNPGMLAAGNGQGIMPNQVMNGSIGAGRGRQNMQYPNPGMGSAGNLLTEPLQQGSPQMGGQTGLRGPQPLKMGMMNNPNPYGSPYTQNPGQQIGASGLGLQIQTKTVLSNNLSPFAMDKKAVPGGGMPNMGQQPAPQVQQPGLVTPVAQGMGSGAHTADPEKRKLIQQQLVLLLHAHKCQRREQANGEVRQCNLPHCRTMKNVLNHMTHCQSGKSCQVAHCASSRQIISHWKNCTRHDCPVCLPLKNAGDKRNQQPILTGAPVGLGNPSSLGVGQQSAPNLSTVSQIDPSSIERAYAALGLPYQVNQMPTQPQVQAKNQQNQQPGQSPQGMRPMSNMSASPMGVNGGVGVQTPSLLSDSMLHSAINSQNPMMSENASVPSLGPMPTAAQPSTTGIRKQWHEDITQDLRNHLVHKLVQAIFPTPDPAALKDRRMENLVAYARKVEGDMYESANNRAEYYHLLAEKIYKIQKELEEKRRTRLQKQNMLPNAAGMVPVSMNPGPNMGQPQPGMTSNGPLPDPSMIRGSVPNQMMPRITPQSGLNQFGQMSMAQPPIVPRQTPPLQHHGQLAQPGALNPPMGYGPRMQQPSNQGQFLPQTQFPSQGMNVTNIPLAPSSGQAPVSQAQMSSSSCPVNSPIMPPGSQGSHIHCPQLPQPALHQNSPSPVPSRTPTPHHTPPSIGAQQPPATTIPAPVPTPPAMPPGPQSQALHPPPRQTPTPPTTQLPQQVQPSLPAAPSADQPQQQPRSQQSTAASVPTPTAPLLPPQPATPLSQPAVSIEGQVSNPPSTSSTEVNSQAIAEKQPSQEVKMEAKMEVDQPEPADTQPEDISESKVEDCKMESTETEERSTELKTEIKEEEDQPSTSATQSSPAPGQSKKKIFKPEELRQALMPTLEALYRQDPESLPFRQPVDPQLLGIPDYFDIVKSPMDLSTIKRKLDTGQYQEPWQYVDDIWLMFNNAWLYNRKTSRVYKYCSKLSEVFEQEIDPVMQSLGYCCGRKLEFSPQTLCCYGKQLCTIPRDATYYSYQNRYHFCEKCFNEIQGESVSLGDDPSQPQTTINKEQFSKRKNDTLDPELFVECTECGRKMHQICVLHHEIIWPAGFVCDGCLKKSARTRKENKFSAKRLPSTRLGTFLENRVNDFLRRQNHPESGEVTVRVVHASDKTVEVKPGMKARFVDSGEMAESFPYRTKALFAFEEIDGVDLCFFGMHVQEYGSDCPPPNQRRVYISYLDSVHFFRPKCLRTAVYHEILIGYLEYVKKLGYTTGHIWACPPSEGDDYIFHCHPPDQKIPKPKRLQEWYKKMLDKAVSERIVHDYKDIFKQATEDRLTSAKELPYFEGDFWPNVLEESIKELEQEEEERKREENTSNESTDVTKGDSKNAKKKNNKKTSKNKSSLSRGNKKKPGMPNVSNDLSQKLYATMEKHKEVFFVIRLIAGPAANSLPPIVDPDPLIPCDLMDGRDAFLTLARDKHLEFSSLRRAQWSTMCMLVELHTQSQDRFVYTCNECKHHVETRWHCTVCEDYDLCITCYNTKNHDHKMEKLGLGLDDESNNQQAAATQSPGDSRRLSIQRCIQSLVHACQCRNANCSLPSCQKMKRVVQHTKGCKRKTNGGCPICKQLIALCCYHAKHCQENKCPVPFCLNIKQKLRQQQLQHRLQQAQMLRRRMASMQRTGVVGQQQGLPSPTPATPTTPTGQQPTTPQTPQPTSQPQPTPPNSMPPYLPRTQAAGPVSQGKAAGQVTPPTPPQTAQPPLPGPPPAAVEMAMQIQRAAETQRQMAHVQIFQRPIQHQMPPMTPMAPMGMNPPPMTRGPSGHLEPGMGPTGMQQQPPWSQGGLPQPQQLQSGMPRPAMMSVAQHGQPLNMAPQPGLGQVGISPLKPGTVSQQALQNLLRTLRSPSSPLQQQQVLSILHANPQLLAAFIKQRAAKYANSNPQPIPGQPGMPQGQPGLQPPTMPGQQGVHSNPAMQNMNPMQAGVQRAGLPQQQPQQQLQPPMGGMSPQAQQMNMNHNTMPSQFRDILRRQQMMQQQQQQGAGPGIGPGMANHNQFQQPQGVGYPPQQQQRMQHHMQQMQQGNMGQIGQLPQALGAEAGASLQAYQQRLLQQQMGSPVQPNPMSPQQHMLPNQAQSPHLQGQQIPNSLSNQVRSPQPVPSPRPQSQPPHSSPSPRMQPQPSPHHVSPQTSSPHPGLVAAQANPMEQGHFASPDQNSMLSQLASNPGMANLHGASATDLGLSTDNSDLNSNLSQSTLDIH

What was measured:
Test in all cases: affinity purification with mass spectrometry
[1] = biological target: Estrogen receptor alpha (ER), wildtype (human (endogenous in Ishikawa)) (UniProt P03372)
[2] = biological target: Estrogen receptor alpha D538G mutant (ER-D538G), FLAG-tagged (human (endogenous in Ishikawa)) (UniProt P03372)
[3] = biological target: Estrogen receptor alpha Y537S mutant (ER-Y537S), FLAG-tagged (human (endogenous in Ishikawa)) (UniProt P03372)

Row | binding [1] | binding [2] | binding [3] | Substance
1 | binds | binds | binds | Cyclin Dependent Kinase 9 (CDK9) (from UniProt P50750 1-372)
2 | binds | – | – | Histone Acetyltransferase P300 (EP300) (from UniProt Q09472 1-2414)
